For the assay, the target named is GST-ATF3 leucine zipper (Zip) domain. The assay can be described thus: pull-down; 1 ug GST or GST fusion protein immobilized on glutathione-agarose, incubated with 5 ul in vitro-translated protein; 20 mM Tris-HCl pH 8.0, 100 mM NaCl, 2 mM EDTA, 2 mM DTT, 5% glycerol, 0.4% NP-40, 4 C overnight; washes with 150 mM NaCl; Western blotting; only the target purified. For orientation: In western blotting, separated proteins are transferred to a membrane and probed.

No constants are given. Whether binding was seen depends on the method and setting. Binding seen in cells or lysates may run through a third protein.

B1: in vitro translated PXR (protein, UniProt O75469 1-434)
chain: MEVRPKESWNHADFVHCEDTESVPGKPSVNADEEVGGPQICRVCGDKATGYHFNVMTCEGCKGFFRRAMKRNARLRCPFRKGACEITRKTRRQCQACRLRKCLESGMKKEMIMSDEAVEERRALIKRKKSERTGTQPLGVQGLTEEQRMMIRELMDAQMKTFDTTFSHFKNFRLPGVLSSGCELPESLQAPSREEAAKWSQVRKDLCSLKVSLQLRGEDGSVWNYKPPADSGGKEIFSLLPHMADMSTYMFKGIISFAKVISYFRDLPIEDQISLLKGAAFELCQLRFNTVFNAETGTWECGRLSYCLEDTAGGFQQLLLEPMLKFHYMLKKLQLHEEEYVLMQAISLFSPDRPGVLQHRVVDQLQEQFAITLKSYIECNRPQPAHRFLFLKIMAMLTELRSINAQHTQRLLRIQDIHPFATPLMQELFGITGS
Consider B1, for which the binding entry is on record as “no binding”.

These data come from paper PMC8965888.
